Measurements: PubChem BioAssay AID1117319 (Southern Research Institute, 2015)
In all, about 260,000 compounds went through this assay and about 1,500 (0.58%) were called active. The shares of active, inactive and inconclusive entries below differ from those in the screen.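 Rule for the calls: active = inhibition above a set limit at one or more doses, reproduced on every date tested; inconclusive = results disagree between test dates, or hit never tested in dose response; inactive = the rest.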

Chains of the proteins cited; added tags and fusions are not shown. Lines headed by an entry give the natural chain unless they say otherwise; changes in a name come on top.
UniProt P69720: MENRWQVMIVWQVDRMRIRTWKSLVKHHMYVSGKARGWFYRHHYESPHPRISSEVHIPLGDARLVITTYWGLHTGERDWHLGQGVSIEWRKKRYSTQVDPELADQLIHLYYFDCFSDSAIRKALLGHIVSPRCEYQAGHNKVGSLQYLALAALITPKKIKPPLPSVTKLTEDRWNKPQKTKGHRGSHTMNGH
UniProt P69721: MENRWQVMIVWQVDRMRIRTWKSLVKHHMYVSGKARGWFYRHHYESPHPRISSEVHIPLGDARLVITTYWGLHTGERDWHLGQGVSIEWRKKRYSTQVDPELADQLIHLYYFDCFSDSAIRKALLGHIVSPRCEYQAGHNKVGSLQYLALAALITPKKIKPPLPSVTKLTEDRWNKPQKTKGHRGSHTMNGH
UniProt P69722: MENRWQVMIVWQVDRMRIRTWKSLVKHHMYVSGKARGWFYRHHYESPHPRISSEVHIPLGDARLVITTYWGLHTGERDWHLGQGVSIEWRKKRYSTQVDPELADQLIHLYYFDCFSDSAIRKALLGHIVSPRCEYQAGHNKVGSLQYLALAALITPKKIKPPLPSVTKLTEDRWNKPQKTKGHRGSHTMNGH
UniProt P69723: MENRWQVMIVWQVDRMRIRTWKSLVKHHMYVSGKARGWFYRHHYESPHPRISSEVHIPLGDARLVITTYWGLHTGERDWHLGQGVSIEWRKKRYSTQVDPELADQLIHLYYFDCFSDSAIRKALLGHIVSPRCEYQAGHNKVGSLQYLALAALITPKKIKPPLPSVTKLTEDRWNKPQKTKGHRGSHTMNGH
UniProt Q9HC16: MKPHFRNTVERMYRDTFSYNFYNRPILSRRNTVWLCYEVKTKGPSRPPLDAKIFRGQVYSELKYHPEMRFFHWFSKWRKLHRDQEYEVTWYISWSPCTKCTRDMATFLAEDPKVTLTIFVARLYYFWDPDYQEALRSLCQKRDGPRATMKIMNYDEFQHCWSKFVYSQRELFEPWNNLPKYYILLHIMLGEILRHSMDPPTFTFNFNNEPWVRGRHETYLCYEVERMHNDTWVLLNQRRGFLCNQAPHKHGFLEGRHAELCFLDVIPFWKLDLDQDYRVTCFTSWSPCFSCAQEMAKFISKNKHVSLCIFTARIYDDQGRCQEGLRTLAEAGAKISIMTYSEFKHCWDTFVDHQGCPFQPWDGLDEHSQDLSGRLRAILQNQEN

These molecules were tested against Virion infectivity factor (Human immunodeficiency virus type 1 group M subtype B (isolate BH10)) + Virion infectivity factor (Human immunodeficiency virus type 1 group M subtype B (isolate BRU/LAI)) + Virion infectivity factor (Human immunodeficiency virus type 1 group M subtype B (isolate PCV12)) + Virion infectivity factor (Human immunodeficiency virus type 1 group M subtype B (isolate HXB2)) + DNA dC->dU-editing enzyme APOBEC-3G (Homo sapiens) (UniProt P69720+P69721+P69722+P69723+Q9HC16) (assay: inhibitors of Vif binding to APOBEC3G peptide, primary screen, biochemical, TR-FRET, GST-Vif 1-94, biotin-A3G peptide, dose response retest (AID 1117319;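 note: Vif residues 1-94 fused to GST binding biotinylated APOBEC3G peptide 110-148; 0% = full assay without inhibitor and 100% = GST in place of GST-Vif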)). Conditions: stronger effect = higher value.

| SMILES | inhibition |
| --- | --- |
| CNC(=O)CN(c1ccc(C(C)C)cc1)S(C)(=O)=O | inconclusive: 47.8% |
| CCC[C@@H]1C[C@@H](C(=O)N[C@H]([C@@H](C)O)[C@H]2O[C@H](SC)[C@H](O)[C@@H](O)C2O)N(C)C1 (some centres undefined) | inconclusive: 39.1% |
| Clc1ccc(C2=C3CCCCn4c(-c5ccccc5)c[n+](c43)C2)cc1 | inconclusive: 54.8% |
| CCCCCCCC(=O)NNC(=O)c1c(O)c2ccccc2n(CCC)c1=O | inconclusive: 33% |
| O=C1c2ccccc2C(=O)c2c1ccc1c(=O)n(-c3ccccc3)[nH]c21 | inconclusive: 41.4% |
| O=C(Cc1nn[nH]n1)Nc1ccc(F)cc1F | inconclusive: 45.1% |
| COC(=O)CCN(c1ccccc1)S(=O)(=O)c1ccc(OC)cc1 | inconclusive: 56.1% |
| O=C(CCC(=O)NNC(=O)COc1ccccc1)NCc1ccccc1 | inconclusive: 61.4% |
| C=CCNC(=O)C1CC(=O)N(c2ccc(OCC(=O)NCc3ccccc3)cc2)C1 (centres undefined) | inconclusive: 53.6% |
| COc1ccc2c(=O)c3c(=O)n(Cc4ccco4)c(C(C)C)nc3oc2c1 | inactive: -5.33% |
| O=C(c1ccccc1F)N1CCN(c2ccc([N+](=O)[O-])c3cccnc23)CC1 | inconclusive: 55.1% |
| CCC1(c2ccc(Cl)cc2)NC(=S)N(c2ccc(C)cc2)N1 (centres undefined) | inconclusive: 35.5% |
| COc1ccccc1CNC(=O)c1nn(-c2ccc(C)cc2)c(=O)c2c1c1ccccc1n2C | inconclusive: 60.7% |
| CCNC(=S)/C(=C(/[O-])c1ccc([N+](=O)[O-])cc1)[n+]1ccccc1 | inconclusive: 59.5% |
| COc1ccccc1Nc1nc2ccccc2n1C | inconclusive: 56.9% |
| NC(=O)C1CCN(C(=O)OCc2ccccc2)CC1 | inconclusive: 58.8% |
| COc1cccc(CN2C(=O)Nc3ccccc3C(=O)N2C(C)(C)C)c1 | inconclusive: 33.8% |
| CC(C)Cc1nnc(NC(=O)Nc2ccccc2)s1 | inconclusive: 43.9% |
| O=C1NCCc2c1[nH]c1ccccc21 | inconclusive: 38.8% |
| O=S(=O)(NCCCN1CCOCC1)c1ccc2c(c1)OCCO2 | inconclusive: 34.9% |
| CCOc1ccc(NC(=O)C(C)Oc2ccccc2C(=O)Nc2ccc(C)c(Cl)c2)cc1 (centres undefined) | inconclusive: 42.8% |
| NC(=S)NNc1ccc(Cl)c(Cl)c1 | inconclusive: 34.6% |
| COc1cc(C(=O)OCC(=O)N(C)Cc2ccccc2)cc(OC)c1OC | inconclusive: 34.5% |

| SMILES | inhibition |
| --- | --- |
| COc1cc(C(C)=O)ccc1OC(C)C(=O)Nc1ccc(S(=O)(=O)N2CCCC2)cc1 (centres undefined) | inconclusive: 56.6% |
| Cc1ccc(CN2CCN(/N=C/c3ccc(O)c(O)c3)CC2)cc1 | inconclusive: 37.6% |
| Cc1ccc(C2C(C#N)=C(N)SC(N)=C2C#N)o1 | inconclusive: 51.3% |
| CCN(CC)C(=O)CSc1nnc([C@H](Cc2c[nH]c3ccccc23)NC(=O)OC(C)(C)C)o1 | inconclusive: 56.8% |
| COc1ccccc1/C=C/C(=O)NCC(=O)N/N=C/c1ccccc1[N+](=O)[O-] | inconclusive: 46.2% |
| O=C(Nc1cccnc1)OC1CCCCC1 | inconclusive: 44.7% |
| CCOc1cc(C2CC(=O)N3CN(C4CCCCC4)CSC3=C2C#N)ccc1O (centres undefined) | inconclusive: 59% |
| CNC(=S)N/N=C(\C)c1ccc(C(C)(C)C)cc1 | inconclusive: 49.9% |
| O=C1CC(SC(=Nc2ccccc2)Nc2ccccc2)C(=O)N1c1cccc2ccccc12 (centres undefined) | inconclusive: 14.5% |
| O=C(O)c1cc(N/N=C/c2ccc(N3CCOCC3)s2)ccc1Cl | inconclusive: 36.2% |
| Cc1noc(C)c1C(=O)Nc1nnc(CC(C)C)s1 | inconclusive: 45% |
| O=C(CSc1nnnn1Cc1ccccc1)NC1CCCCC1 | inconclusive: 57.5% |
| Cc1ccc(SCc2nc(-c3ccccc3)no2)cc1 | inconclusive: 14.6% |
| Cc1onc(-c2ccccc2Cl)c1C(=O)NCc1ccc(N2CCCC2=O)cc1 | inconclusive: 30.4% |
| OC(C#Cc1ccccn1)c1cccs1 (centres undefined) | inconclusive: 41.8% |
| C=CC#CC[N+]1(CC#Cc2ccccc2)CCOCC1 | inconclusive: 58.2% |
| CCCNc1nc(C)nc2c1cnn2CCc1ccccc1 | inconclusive: 61.8% |
| O=C(O)CCCCCN1C(=O)CCC1=O | inconclusive: 51.6% |
| Cn1c(=O)c2c(O)c([N+](=O)[O-])c(=O)n(C)c2n(C)c1=O | inconclusive: 36.1% |
| COc1ccc2[nH]c(=O)c(CN(CCO)C(=O)c3cccs3)cc2c1 | inconclusive: 46.3% |
| Cc1cccc(N2CCN(C3=NC(=O)C(=C4CCCCC4)S3)CC2)c1 | inconclusive: 33.9% |
| O=C(NC(NC(=S)Nc1c(Cl)cccc1Cl)C(Cl)(Cl)Cl)c1cccc([N+](=O)[O-])c1 (centres undefined) | inconclusive: 48.6% |
| Cc1cc(=O)oc(C)c1C(=O)Nc1ccc2ncccc2c1 | inconclusive: 35.1% |

Looked up one by one from the list above:

| SMILES | inhibition |
| --- | --- |
| O=C(CSc1nnnn1Cc1ccccc1)NC1CCCCC1 | inconclusive: 57.5% |
| C=CC#CC[N+]1(CC#Cc2ccccc2)CCOCC1 | inconclusive: 58.2% |
| COc1ccc2[nH]c(=O)c(CN(CCO)C(=O)c3cccs3)cc2c1 | inconclusive: 46.3% |
| O=C(O)CCCCCN1C(=O)CCC1=O | inconclusive: 51.6% |
| OC(C#Cc1ccccn1)c1cccs1 (centres undefined) | inconclusive: 41.8% |
| COc1ccccc1/C=C/C(=O)NCC(=O)N/N=C/c1ccccc1[N+](=O)[O-] | inconclusive: 46.2% |

Next compounds

| SMILES | inhibition |
| --- | --- |
| CC(=O)N1CN(S(=O)(=O)c2ccc(C)cc2)CC1C (centres undefined) | inconclusive: 33% |
| C=CCOc1ccc(C2OC34CCCCC3C(C#N)(C#N)C2(C#N)C(=N)O4)cc1 (centres undefined) | inconclusive: 40.7% |
| O=C(COC(=O)c1ccc(-c2nnc(-c3ccccc3)o2)cc1)c1ccccc1 | inconclusive: 39.2% |
| CCCCc1ccc(N=N/C(C(=O)Nc2cc(OC)c(NC(C)=O)cc2OC)=C(/C)O)cc1 | inconclusive: 41.3% |
| Cc1ccc(Cl)cc1N1CCN(C(=O)COc2ccc(S(=O)(=O)NC(C)C)cc2)CC1 | inactive: 6.57% |
| Cc1ccc(-n2cccc2/C=C2\C(=N)N3N=C(C(C)C)SC3=NC2=O)cc1 | inconclusive: 42.8% |
| O=C(c1ccco1)N1CCN(C(=O)C2(S(=O)(=O)c3ccc(Cl)cc3)CC2)CC1 | inconclusive: 35.4% |
| NC(=O)COC(=O)c1c2c(nc3ccccc13)CCC2 | inconclusive: 51.7% |
| COc1cc(C(C)=O)ccc1OCC(O)Cn1nc(C)c(C(C)=O)c1C (centres undefined) | inconclusive: 45% |
| O=C(c1ccc2c(c1)OCO2)N1CCN(C(=O)c2ccco2)CC1 | inconclusive: 47.3% |
| O=C(Oc1cccc2cccnc12)c1ccc(N2C(=O)C3C4CCC(C4)C3C2=O)cc1 (centres undefined) | inconclusive: 41.6% |
| Cc1ccc(N2C(=O)CC(Sc3ccccc3C(=O)O)C2=O)c([N+](=O)[O-])c1 (centres undefined) | inconclusive: 38.7% |
| CCOC(=O)c1sc(NC(=S)NC(=O)c2cccc(Cl)c2)c(C(=O)OCC)c1C | inconclusive: 34.3% |
| Nc1c(Cl)cc(Cl)cc1C(=O)OCC(=O)N1CCCC1 | inconclusive: 62.8% |
| CCN(CC)CCCC(C)NC(=O)c1cc(=O)c2ccccc2o1 (centres undefined) | inconclusive: 33.3% |
| Nc1cccc2nc3ccccc3cc12 | inactive: 11.9% |
| COc1cc(/C=N/N2C(C)CCCC2C)cc(Br)c1O (centres undefined) | inconclusive: 38.7% |
| O=C1N(c2ccccc2)C2CS(=O)(=O)CC2N1c1ccc(Br)cc1 (centres undefined) | inconclusive: 47.7% |
| Cc1ccccc1Cn1c([N+](=O)[O-])cnc1C | inconclusive: 35.8% |
| O=C(Oc1cccnc1)c1ccc([N+](=O)[O-])cc1 | inconclusive: 42.9% |
| COc1ccccc1NS(=O)(=O)c1ccc(Cl)c(NC(=S)NC(=O)C2CCCC2)c1 | inconclusive: 40.4% |
| COc1ccc(OC)c(NC(=O)C2CCC(CNc3c(N4CCC(C)CC4)c(=O)c3=O)CC2)c1 (centres undefined) | inconclusive: 44% |
| CSc1ccccc1C(=O)Nc1cccc(C(C)O)c1 (centres undefined) | inconclusive: 58.4% |

| SMILES | inhibition |
| --- | --- |
| CCC(=O)NCCC(c1ccco1)c1ccccc1OC (centres undefined) | inconclusive: 46.5% |
| COc1ccc(CCn2c(=O)[nH]c3cc(C(=O)NCCCN4CCOCC4)ccc3c2=O)cc1OC | inconclusive: 43.4% |
| O=CN1CCN(C(C(=O)NC2CCCC2)c2cc3c(cc2[N+](=O)[O-])OCO3)CC1 (centres undefined) | inconclusive: 34.8% |
| O=C(Nc1cc2c(oc1=O)CCCC2=O)c1ccc(Cl)cc1 | inconclusive: 43.4% |
| C=CCn1c(C)cc(C(=O)CSc2nc3ccccc3o2)c1C | inconclusive: 35.2% |
| Cc1cccc(OCCSc2nc3ncnc(N)c3[nH]2)c1 | inconclusive: 42.3% |
| NC(=O)c1nn(-c2ccccc2)nc1NC(=O)Cn1nnc(-c2ccccc2)n1 | inconclusive: 44.9% |
| CCOc1ccccc1N(CC(=O)O)S(=O)(=O)c1ccc(C)cc1 | inconclusive: 43.3% |
| CCCCn1c(=N)n(CC(=O)c2ccc(OC)cc2)c2ccccc21 | inconclusive: 36.5% |
| COc1cc(N/C(N)=N/c2nc(C)cc(C)n2)cc(OC)c1 | inconclusive: 59.7% |
| CCn1cc(C(=O)NCC2CCCO2)c(=O)c2cc(F)c(N3CCN(C)CC3)cc21 (centres undefined) | inconclusive: 34.6% |
| Cc1cccc(NS(=O)(=O)c2cccc3cccnc23)n1 | inconclusive: 45% |
| COc1ccc(CNC(=O)Nc2cc(C)ccc2C)cc1 | inconclusive: 52.6% |
| CNC(=O)CSc1nc2ccccc2c(=O)n1-c1cc(OC)ccc1OC | inconclusive: 38.7% |
| COc1ccc(CCNS(=O)(=O)c2ccc3c(c2)CCN3C(=O)C2CC2)cc1OC | inconclusive: 33.4% |
| O=S(=O)(c1ccccc1)c1cc(O)ccc1O | inconclusive: 46.9% |
| Cc1cccc(C(=O)N2CCN(c3ccc([N+](=O)[O-])c(N4CCOCC4)c3)CC2)c1 | inconclusive: 49.1% |
| O=C1c2cccnc2C(Nc2ccccc2Br)N1Cc1ccco1 (centres undefined) | inactive: 9.8% |
| C=CCn1c(SCC(=O)c2ccc(CNC(C)=O)o2)nc2scc(C3CC3)c2c1=O | inconclusive: 33.6% |
| CS(=O)(=O)N1CCC(C(=O)Nc2cccc(C(F)(F)F)c2)CC1 | inactive: 30.5% |
